PubChem BioAssay AID504774 | Drosophila RNAi Screening Center – 2011

Aim: 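Fly genes whose loss alters survival after alkylation damage to DNA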 (primary screen)
System: Drosophila Kc167 cells
Reagents: long dsRNA against Drosophila genes, about 0.25 µg dsRNA per well
Timing: about 6 days: 3 days knock-down, then 3 days with or without MMS
Challenge: methyl methanesulphonate 0.004% (w/v) for 3 days after knock-down
Measured: 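Viability in wells given MMS, read as ATP luminescence, normalised by quantiles plate by plate and averaged across replicates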
Scale: mean viability with MMS and viability with MMS: higher = more surviving cells after MMS
The deposit covers about 23,000 reagents; this is an unselected part of those with a known target gene and a result. 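Values are quantile-normalised luminescence on an arbitrary scale; higher means more cells surviving MMS.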 Reagents against one gene are numbered here. A plus sign joins genes that one reagent is predicted to hit. Further read-outs or replicates are left out here. No sequences are given here.

| predicted target | reagent no. | mean viability with MMS | viability with MMS, replicate 1 |
| --- | --- | --- | --- |
| CG10340 | 1 | 3.64e6 | 4.13e6 |
| CycD | 1 | 3.53e6 | 4.05e6 |
| LysB | 1 | 3.74e6 | 4.21e6 |
| CG16782 | 1 | 3.46e6 | 3.86e6 |
| mEFTu2 | 1 | 3.16e6 | 2.77e6 |
| CG1695 | 1 | 3.64e6 | 4.09e6 |
| CG32111 (retired record) | 1 | 3.65e6 | 4.15e6 |
| CG10803 | 1 | 3.50e6 | 3.95e6 |
| Uck | 1 | 3.45e6 | 3.92e6 |
| Uck | 2 | 3.52e6 | 3.99e6 |
| Drsl1 | 1 | 3.61e6 | 4.06e6 |
| CG3104 | 1 | 3.34e6 | 3.80e6 |
| Pect | 1 | 3.72e6 | 4.36e6 |
| Pect | 2 | 3.28e6 | 3.68e6 |
| Cyp9b2 | 1 | 3.73e6 | 4.19e6 |
| CG15368 | 1 | 3.37e6 | 3.84e6 |
| CG15368 | 2 | 3.77e6 | 4.25e6 |
| CG15429 | 1 | 3.53e6 | 4.16e6 |
| lwr | 1 | 3.63e6 | 3.90e6 |
| CG12170 | 1 | 3.83e6 | 4.36e6 |
| CG32409 | 1 | 3.42e6 | 3.75e6 |
| CG12106 | 1 | 3.52e6 | 3.94e6 |
| Su(H) | 1 | 3.42e6 | 3.95e6 |
| CG32148 | 1 | 3.58e6 | 4.10e6 |
| CG32971 | 1 | 3.52e6 | 3.97e6 |
| Cda5 | 1 | 3.61e6 | 3.88e6 |
| Cda5 | 2 | 3.54e6 | 3.95e6 |
| Cda5 | 3 | 3.54e6 | 3.99e6 |
| Cda5 | 4 | 3.50e6 | 4.04e6 |
| CG32816 | 1 | 3.62e6 | 4.13e6 |
| MetRS-m | 1 | 3.60e6 | 4.13e6 |
| MetRS-m | 2 | 3.36e6 | 3.87e6 |
| CG6660 | 1 | 3.55e6 | 4.00e6 |
| Cyp12a5 | 1 | 3.68e6 | 4.15e6 |
| CG18528 | 1 | 3.56e6 | 4.04e6 |
| Pp1-87B | 1 | 3.08e6 | 3.60e6 |
| Pp1-87B | 2 | 3.56e6 | 4.02e6 |
| NimC4 | 1 | 3.60e6 | 4.15e6 |
| CG33474 | 1 | 3.60e6 | 3.99e6 |
| Hr96 | 1 | 3.53e6 | 3.95e6 |
| RpL24 | 1 | 3.18e6 | 3.66e6 |
| santa-maria | 1 | 3.69e6 | 4.24e6 |
| santa-maria | 2 | 3.57e6 | 3.95e6 |
| CG30411 | 1 | 3.59e6 | 4.20e6 |
| CG42809 + CG42810 | 1 | 3.74e6 | 4.05e6 |
| CG42809 + CG42810 | 2 | 3.70e6 | 4.23e6 |
| mus81 | 1 | 3.65e6 | 4.10e6 |
| mus81 | 2 | 3.67e6 | 4.10e6 |
| CG14346 | 1 | 3.43e6 | 3.83e6 |
| Mrp5 | 1 | 3.66e6 | 4.18e6 |
| Mrp5 | 2 | 3.67e6 | 4.29e6 |
| CG30269 | 1 | 3.57e6 | 3.85e6 |
| Herp | 1 | 3.56e6 | 4.08e6 |
| CG4593 | 1 | 3.47e6 | 3.91e6 |
| Elo68alpha | 1 | 3.67e6 | 4.11e6 |
| CG11593 | 1 | 3.45e6 | 3.93e6 |
| CG12746 | 1 | 3.83e6 | 4.26e6 |
| Galphaf | 1 | 3.67e6 | 4.20e6 |
| Uba4 | 1 | 3.44e6 | 3.95e6 |
| Zmynd8 | 1 | 3.68e6 | 4.35e6 |
| Start1 | 1 | 3.53e6 | 3.85e6 |
| CG14153 | 1 | 3.66e6 | 4.24e6 |
| CG14153 | 2 | 3.55e6 | 4.02e6 |
| CG5098 | 1 | 3.45e6 | 3.83e6 |
| CG9522 | 1 | 3.52e6 | 3.99e6 |
| Mtl | 1 | 3.60e6 | 4.07e6 |
| AP-2sigma | 1 | 3.52e6 | 4.03e6 |
| Sur-8 | 1 | 3.57e6 | 4.15e6 |
